The text below walks through data of patent US20230303698A1.

No constants are given. Whether binding was seen depends on the method and setting. Binding calls can cover weak binding; strength is not graded here.

The assay concerns the target cynomolgus monkey OX40-His protein (cynomolgus monkey). Nature of the assay: ELISA, plate coated with cynomolgus monkey OX40-His protein. On the technique in general: An ELISA detects its analyte on a solid surface through an enzyme-linked reagent.

B1: PR002067, anti-OX40 heavy-chain antibody R1026P079E12 (antibody, human IgG1, V domains shown)
VH: EVQLLESGGGLVQPGGSLRLSCAASGFTFSSYAMSWVRQAPGKGLEWVSAISGRGGSTFYADSVRGRFTISRDNSKNTLYLQMNSLRAEDTAMYYCVDGTTGTTDVDYWGQGTLVTVSS
Consider B1, for which the binding entry was “binds”.
